Measured values from PubChem BioAssay AID743255 (National Center for Advancing Translational Sciences (NCATS), 2014).
Out of some 390,000 compounds screened, about 910 (0.23%) were called active. Inconclusive results, whose numbers are uncertain, are shown with a selection of clear calls. Calls come from the whole dose curve; as a rule, active = well fitted inhibition curve with a large enough effect; inconclusive = small, poorly fitted or top-dose-only effect; inactive = no such curve, though single readings can be large or run the other way. A potency beside an inconclusive call is a rough fit, not a confirmed value.

Amino acid sequences for entries named in this document (tags omitted). A change or cut given only in a name is not applied to a line headed by its entry.
UniProt O94782: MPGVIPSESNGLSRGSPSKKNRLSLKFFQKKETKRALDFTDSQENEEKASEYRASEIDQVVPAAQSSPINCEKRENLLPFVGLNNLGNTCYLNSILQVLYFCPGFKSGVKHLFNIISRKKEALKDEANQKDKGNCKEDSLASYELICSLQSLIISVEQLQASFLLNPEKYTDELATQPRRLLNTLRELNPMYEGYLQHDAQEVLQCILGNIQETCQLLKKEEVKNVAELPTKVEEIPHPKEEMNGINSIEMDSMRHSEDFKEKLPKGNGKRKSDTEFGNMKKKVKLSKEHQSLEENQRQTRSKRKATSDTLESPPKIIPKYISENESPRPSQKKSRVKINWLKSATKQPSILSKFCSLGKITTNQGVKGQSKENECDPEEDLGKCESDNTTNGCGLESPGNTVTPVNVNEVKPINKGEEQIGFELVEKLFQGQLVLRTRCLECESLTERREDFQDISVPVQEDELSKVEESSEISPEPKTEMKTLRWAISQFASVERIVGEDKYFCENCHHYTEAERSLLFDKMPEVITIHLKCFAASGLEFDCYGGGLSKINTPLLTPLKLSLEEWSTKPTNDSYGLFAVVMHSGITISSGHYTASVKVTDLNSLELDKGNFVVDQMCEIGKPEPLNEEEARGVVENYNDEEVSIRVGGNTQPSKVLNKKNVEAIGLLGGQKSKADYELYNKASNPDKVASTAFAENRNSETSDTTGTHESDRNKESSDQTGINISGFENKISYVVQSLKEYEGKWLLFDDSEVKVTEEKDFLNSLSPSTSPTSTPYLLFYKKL

target: Ubiquitin carboxyl-terminal hydrolase 1 (Homo sapiens) (UniProt O94782); experiment: Inhibitors of USP1/UAF1: Primary Screen; conditions: recombinant USP1/UAF1, Ub-Rhodamine cleavage fluorescence; activity change, negative = inhibition: at 57.1 µM (top of the series); note: nearly all actives have a fitted effect of over 60% in size
Outline: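 In this screen, compounds sit with the deubiquitinase complex (1nM) for 15 min at room temperature before Ub-Rho is added at 150nM final. Fluorescence rise is then followed for 6 reads every 60 seconds.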
% is set by controls: 0 for no effect and ±100 for the full control effect; potency is the fitted concentration of half-maximal effect.

Question: Which “activity change, negative = inhibition” value does the source give for `COC(=O)c1sc(NC(=S)NC(=O)c2ccccc2C)nc1C` here?
Answer: inactive: -23.2%

Question: With `COc1cc2c(cc1OC)[C@@H](NC(=O)C(C)C)[C@H](OCc1ccccc1)C2` as the compound, how does the Potency read?
Answer: inconclusive: 70.8 µM [inhibitor, partial curve]

Question: For `CC(C)CC(COCc1ccc(Cl)cc1)N1CCN(C(=O)c2ccc(C(F)(F)F)cc2)CCC1=O` (stereo unspecified), which Potency is on record?
Answer: inconclusive: 44.7 µM [inhibitor, partial curve, poor fit]

Question: `COc1ccc(C(CCNCc2ccc(OC)c(OC)c2)c2ccc(F)cc2)cc1` (stereo unspecified) was tested. Which Potency did it give?
Answer: inconclusive: 5.62 µM [inhibitor, single point]

Question: Which Potency does the source give for `NCCS` here?
Answer: inconclusive: 28.2 µM [inhibitor, single point]

Question: For `O=C(O)CCCC(=O)Nc1ccc(N=Nc2ccccc2)cc1`, which Potency is on record?
Answer: inconclusive: 5.62 µM [inhibitor, partial curve]

Question: `COc1cc2ccc(-c3ccc4ccccc4n3)cc2cc1OC` was tested. Which Potency did it give?
Answer: inconclusive: 12.6 µM [inhibitor, partial curve]

Question: For `COc1ccc(/C=N/n2cnn(Cc3ccccc3Cl)c2=S)cc1`, which “activity change, negative = inhibition” value is on record?
Answer: inactive: -22.5%

Question: `CCOc1cc([N+](=O)[O-])cc(/C=N/NC(=O)c2c(-c3ccccc3)noc2C)c1O` was tested. Which Potency did it give?
Answer: inconclusive: 5.62 µM [inhibitor, partial curve]

Question: `CCCCn1nc2cc(C(=O)NCCc3cccs3)ccc2c1OCC` was tested. Which Potency did it give?
Answer: inconclusive: 70.8 µM [inhibitor, partial curve, poor fit]

Question: How did the Potency turn out when `CCCCN1C(N)=NC[C@@H]1CC1CCCCC1` was run?
Answer: inconclusive: 0.282 µM [inhibitor, full curve, poor fit]

Question: For `COc1cccc(Nc2cc(-c3ccccc3)nc(C)n2)c1`, which Potency is on record?
Answer: inconclusive: 12.6 µM [inhibitor, partial curve]

Question: How did the “activity change, negative = inhibition” value turn out when `CC1(C)S[C@@H]2[C@H](NC(=O)[C@H](N)c3ccccc3)C(=O)N2[C@H]1C(=O)OC1OC(=O)c2ccccc21` (stereo partly specified) was run?
Answer: inactive: 7.17%

Question: How did the “activity change, negative = inhibition” value turn out when `O=C(C1CC(=O)N(c2ccc3c(c2)OCCO3)C1)N1CCN(Cc2ccccc2F)CC1` (stereo unspecified) was run?
Answer: inactive: -13.4%

Question: For `Nc1ccn(C2CCCCO2)c(=O)n1` (stereo unspecified), which Potency is on record?
Answer: inconclusive: 50.1 µM [inhibitor, single point]

Question: With `COc1cccc(C(=O)Nc2ccc3nc(SCc4ccc(C)cc4)sc3c2)c1` as the compound, how does the Potency read?
Answer: inconclusive: 0.1 µM [inhibitor, full curve, poor fit]

Question: For `COc1cc(C(=O)N2CCC(c3ccncc3)CC2)cc(OC)c1OC`, which Potency is on record?
Answer: inconclusive: 4.47 µM [inhibitor, single point]

Question: For `COc1ccc2oc(C(=O)N(C)CCOc3ccccc3)c(C)c2c1`, which “activity change, negative = inhibition” value is on record?
Answer: inactive: -19.9%

Question: `CC(Nc1cc(C)cc(C)c1)=[N+](C)CCNS(=O)(=O)c1ccc(Cl)cc1` was tested. Which “activity change, negative = inhibition” value did it give?
Answer: inactive: -12.6%

Question: How did the Potency turn out when `Cc1nc2ccc(Br)cn2c1C(=O)N/N=C\c1ccccc1[N+](=O)[O-]` was run?
Answer: inconclusive: 35.5 µM [inhibitor, partial curve, poor fit]

Question: For `CC(C)N=C1CCCC1C(=S)SSC(=S)C1CCCC1=NC(C)C` (stereo unspecified), which Potency is on record?
Answer: inconclusive: 5.62 µM [inhibitor, partial curve]

Question: Which Potency does the source give for `Cc1cc2c(C)ccc(C)c2nc1SCC(=O)c1cccs1` here?
Answer: inconclusive: 39.8 µM [inhibitor, partial curve, poor fit]

Question: Which Potency does the source give for `COc1cc2c(cc1OC)[C@@H](Cc1ccc(OCCC#N)cc1)N(C)CC2` here?
Answer: inconclusive: 31.6 µM [inhibitor, single point]

Question: For `CCn1c2ccccc2c2nc3cc(S(=O)(=O)N4CCOCC4)ccc3nc21`, which Potency is on record?
Answer: inconclusive: 17.8 µM [inhibitor, partial curve]

Question: With `CCN(CC)CCNC(=O)CCCCn1c(=S)[nH]c2c([nH]c3ccc(OC)cc32)c1=O` as the compound, how does the Potency read?
Answer: inconclusive: 28.2 µM [inhibitor, single point]

Question: For `CCc1ccccc1NC(=O)CSc1nc2c(oc3ccccc32)c(=O)n1-c1ccccc1`, which Potency is on record?
Answer: inconclusive: 35.5 µM [inhibitor, partial curve]

Question: For `Cc1c(C(=O)NC(C)CCc2ccccc2)cccc1[N+](=O)[O-]` (stereo unspecified), which “activity change, negative = inhibition” value is on record?
Answer: inactive: -9.78%

Question: How did the Potency turn out when `O=C(NCCN1CCc2ccccc2C1)C1CCN(S(=O)(=O)N2CCCCC2)CC1` was run?
Answer: inconclusive: 0.316 µM [inhibitor, full curve, poor fit]

Question: Which Potency does the source give for `Cc1cc(-c2nnnn2-c2ccc(F)cc2)no1` here?
Answer: inconclusive: 4.47 µM [inhibitor, partial curve, poor fit]

Question: With `CCOc1ccc(NC(=O)CSc2nc3nc(C)c(Cc4ccccc4)c(C)n3n2)cc1` as the compound, how does the Potency read?
Answer: inconclusive: 0.891 µM [inhibitor, full curve, poor fit]

Question: For `COc1ccc(/C=C(\C#N)c2nc(-c3ccc(Cl)c(Cl)c3)cs2)cc1OC`, which Potency is on record?
Answer: inconclusive: 50.1 µM [inhibitor, single point]

Question: How did the Potency turn out when `Cc1c2cnn(CC(=O)NCCc3ccccc3)c(=O)c2c(C)n1Cc1ccccc1Cl` was run?
Answer: inconclusive: 5.62 µM [inhibitor, partial curve]

Question: Which Potency does the source give for `O=C(CSc1cccc[n+]1[O-])c1ccc(Cl)s1` here?
Answer: inconclusive: 39.8 µM [inhibitor, single point]

Question: How did the Potency turn out when `CCc1nn(CC(=O)NCCCN(CC)Cc2ccccc2)c(=O)c2cc3sccc3n12` was run?
Answer: inconclusive: 2.82 µM [inhibitor, full curve, poor fit]

Question: `CC(=O)Nc1ccc(Nc2c3c4c(cccc4n(C)c2=O)C(=O)c2ccccc2-3)cc1` was tested. Which Potency did it give?
Answer: inconclusive: 28.2 µM [inhibitor, single point]

Question: `CCOC(=O)c1c(C)oc2ncnc(NCCCN3CCN(c4cc(C)ccc4C)CC3)c12` was tested. Which “activity change, negative = inhibition” value did it give?
Answer: inactive: -20.5%

Question: How did the “activity change, negative = inhibition” value turn out when `C[C@H](CO)N1C[C@H](C)[C@@H](CN(C)C(=O)Nc2ccc(C(F)(F)F)cc2)Oc2c(NS(=O)(=O)c3ccccc3)cccc2C1=O` was run?
Answer: inactive: -28.5%

Question: How did the Potency turn out when `COc1ccc(C2/C=C\CN(CC3CC3)CC(=O)N2Cc2ccc(F)cc2)cc1` (stereo unspecified) was run?
Answer: inconclusive: 2.24 µM [inhibitor, full curve, poor fit]

Question: With `Cc1occc1-c1nnc(SCC(=O)c2c[nH]c3ccccc23)n1C` as the compound, how does the “activity change, negative = inhibition” value read?
Answer: inactive: -21.3%

Question: How did the “activity change, negative = inhibition” value turn out when `O=C(NCc1ccco1)C1CCN(C(=O)N2CCOc3ccc(Cl)cc32)CC1` was run?
Answer: inactive: 3.76%

Question: How did the “activity change, negative = inhibition” value turn out when `O=S(=O)(NCCc1csc2nc(-c3ccc(Cl)cc3)nn12)c1ccc(Oc2ccccc2)cc1` was run?
Answer: inactive: -1.08%

Question: For `Cc1cc2nc(-c3ccc(Cl)cc3)cc(C(F)(F)F)n2n1`, which “activity change, negative = inhibition” value is on record?
Answer: inactive: -12.9%

Question: `O=C1CC(c2ccccc2)CC(O)=C1C=Nc1ccccc1O` (stereo unspecified) was tested. Which “activity change, negative = inhibition” value did it give?
Answer: inactive: -15%

Question: How did the “activity change, negative = inhibition” value turn out when `COc1ccc(/C=C/C(=O)OCC(=O)Nc2ccc3[nH]c(=O)[nH]c3c2)cc1OC` was run?
Answer: inactive: -29.3%

Question: Which Potency does the source give for `Cc1cc([N+](=O)[O-])ccc1NS(=O)(=O)c1ccccc1` here?
Answer: inconclusive: 7.08 µM [inhibitor, partial curve, poor fit]

Question: For `COc1ccc(NC(=O)CSc2nc(O)cc(=O)n2-c2ccc(OC)cc2)cc1`, which Potency is on record?
Answer: inconclusive: 7.08 µM [inhibitor, partial curve]

Question: `Cc1cc(N)ccc1N1CCCC1` was tested. Which Potency did it give?
Answer: inconclusive: 35.5 µM [inhibitor, partial curve]

Question: With `Cc1ccc(O)c(NC(=O)c2noc3c2CCCCC3)c1` as the compound, how does the Potency read?
Answer: inconclusive: 1.26 µM [inhibitor, full curve, poor fit]

Question: For `COc1cccc(-n2cc(C(=O)Oc3cccc(C(F)(F)F)c3)c3ccccc3c2=O)c1`, which Potency is on record?
Answer: inconclusive: 126 µM [inhibitor, partial curve]

Question: For `COC(=O)[C@]1(Cc2ccccc2)N[C@H](CN(C)C(=O)Nc2ccc(OC)cc2)[C@@H]2C(=O)N(C)C(=O)[C@@H]21`, which Potency is on record?
Answer: inconclusive: 141 µM [inhibitor, partial curve, poor fit]

Question: `COc1cccc(N2CCN(CC(=O)NC(=O)NCc3ccco3)CC2)c1` was tested. Which “activity change, negative = inhibition” value did it give?
Answer: inactive: -14.9%

Question: How did the Potency turn out when `CC1=C(OC(=O)C(C)(C)C)C(C)(C)C(c2ccccc2)OC1=O` (stereo unspecified) was run?
Answer: inconclusive: 7.08 µM [inhibitor, full curve, poor fit]

Question: Which Potency does the source give for `CC(=O)NCCNc1nc2c(-c3ccc(C)cc3)nnn2c2ccccc12` here?
Answer: inconclusive: 25.1 µM [inhibitor, partial curve, poor fit]

Question: For `Cc1ccc2nc(NC(=O)C3CCN(S(=O)(=O)c4cccs4)CC3)sc2c1`, which “activity change, negative = inhibition” value is on record?
Answer: inactive: -1.18%

Question: How did the Potency turn out when `CC12CCC(C(=O)N(c3nccs3)C1=O)C2(C)C` (stereo unspecified) was run?
Answer: inconclusive: 44.7 µM [inhibitor, partial curve, poor fit]

Question: `CCCNC(=S)NC1CC2CCC(C1)N2Cc1ccccc1` (stereo unspecified) was tested. Which “activity change, negative = inhibition” value did it give?
Answer: inactive: -10.1%

Question: How did the Potency turn out when `O=c1oc2ccccc2nc1/C=C(O)/C=C\c1ccccc1` was run?
Answer: inconclusive: 25.1 µM [inhibitor, partial curve]

Question: `COC(=O)c1cc(C)nc2c1C(=O)C(=O)C=C2N1CCOCC1` was tested. Which Potency did it give?
Answer: active: 1.26 µM

Question: `C[C@H](CO)N1C[C@H](C)[C@@H](CN(C)C(=O)Nc2ccc(C(F)(F)F)cc2)Oc2ccc(NS(=O)(=O)c3ccccc3)cc2C1=O` was tested. Which Potency did it give?
Answer: inconclusive: 44.7 µM [inhibitor, partial curve, poor fit]

Question: For `CCCn1cnc2cc(NCc3ccccn3)ccc21`, which Potency is on record?
Answer: inconclusive: 39.8 µM [inhibitor, partial curve, poor fit]

Question: With `Cc1ccc(C(=O)/C=C/c2cn(CC(O)CN3CCc4ccccc43)c3ccccc23)cc1` (stereo unspecified) as the compound, how does the Potency read?
Answer: inconclusive: 17.8 µM [inhibitor, partial curve]

Question: For `Cc1nc2nc(SCc3c(F)cccc3Cl)nn2c(C)c1Cc1ccccc1`, which Potency is on record?
Answer: inconclusive: 2.24 µM [inhibitor, full curve]

Question: With `Cc1cccc(C(=O)NCCCNC(=O)c2ccccn2)c1` as the compound, how does the Potency read?
Answer: inconclusive: 2.51 µM [inhibitor, partial curve]

Question: Which Potency does the source give for `Cc1oc2ncn(C)c(=O)c2c1C(=O)Nc1ccccn1` here?
Answer: inconclusive: 3.16 µM [inhibitor, full curve]

Question: With `CC(=O)CCc1oc2ccc(C)cc2c1Cc1ccccc1` as the compound, how does the “activity change, negative = inhibition” value read?
Answer: inactive: -7.89%

Question: Which Potency does the source give for `CCOc1ccc2ncc(S(=O)(=O)c3ccc(C)cc3)c(N3CCC4(CC3)OCCO4)c2c1` here?
Answer: inconclusive: 44.7 µM [inhibitor, partial curve]
